Some of the results follow.
Compound: Cc1cc(ccc1-c1ccccc1)C(=O)N1CCCN(CC1)C(=O)CCl [compound 10]
Experiment: probe-labelled cysteine peptide fold change vs DMSO (competition) (log2 fold change); higher = less target engagement (more negative = stronger competition)
Details: THP-1, incubation time: 4 h
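Further: competitive profiling in live THP-1 cells: cysteine peptides tagged with an iodoacetamide desthiobiotin (IA-DTB) probe, intensity after compound treatment relative to DMSO-treated cells.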

Protein sequences, listed by entry. Tags and fused reporters are not part of them. Lines headed by an entry give the natural chain unless they say otherwise; changes in a name come on top.
UniProt Q06187: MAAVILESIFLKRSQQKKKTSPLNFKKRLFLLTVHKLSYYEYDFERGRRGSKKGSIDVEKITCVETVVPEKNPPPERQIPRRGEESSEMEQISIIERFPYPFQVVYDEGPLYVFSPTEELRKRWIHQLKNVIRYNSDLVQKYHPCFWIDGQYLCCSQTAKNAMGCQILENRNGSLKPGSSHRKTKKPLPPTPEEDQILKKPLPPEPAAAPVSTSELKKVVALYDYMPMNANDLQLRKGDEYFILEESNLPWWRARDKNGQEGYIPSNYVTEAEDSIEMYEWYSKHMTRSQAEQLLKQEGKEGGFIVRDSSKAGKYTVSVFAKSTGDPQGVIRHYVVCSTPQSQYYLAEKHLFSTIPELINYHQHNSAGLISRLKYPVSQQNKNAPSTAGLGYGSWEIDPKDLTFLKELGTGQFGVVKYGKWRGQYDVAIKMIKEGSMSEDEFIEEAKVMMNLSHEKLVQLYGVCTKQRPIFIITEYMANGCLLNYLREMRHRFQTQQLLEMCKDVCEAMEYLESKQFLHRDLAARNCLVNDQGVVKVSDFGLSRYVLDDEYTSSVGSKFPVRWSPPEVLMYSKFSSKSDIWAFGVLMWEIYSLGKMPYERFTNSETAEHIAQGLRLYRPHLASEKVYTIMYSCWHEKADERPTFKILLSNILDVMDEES
UniProt Q10588: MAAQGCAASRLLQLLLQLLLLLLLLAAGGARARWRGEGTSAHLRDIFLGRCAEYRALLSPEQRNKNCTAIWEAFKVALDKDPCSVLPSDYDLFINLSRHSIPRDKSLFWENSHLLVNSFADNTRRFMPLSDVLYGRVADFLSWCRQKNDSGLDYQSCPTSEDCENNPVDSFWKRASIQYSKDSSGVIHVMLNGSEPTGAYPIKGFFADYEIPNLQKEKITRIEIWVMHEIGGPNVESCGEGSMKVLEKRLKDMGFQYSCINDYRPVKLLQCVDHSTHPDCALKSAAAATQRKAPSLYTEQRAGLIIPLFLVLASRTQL
UniProt Q86YS7: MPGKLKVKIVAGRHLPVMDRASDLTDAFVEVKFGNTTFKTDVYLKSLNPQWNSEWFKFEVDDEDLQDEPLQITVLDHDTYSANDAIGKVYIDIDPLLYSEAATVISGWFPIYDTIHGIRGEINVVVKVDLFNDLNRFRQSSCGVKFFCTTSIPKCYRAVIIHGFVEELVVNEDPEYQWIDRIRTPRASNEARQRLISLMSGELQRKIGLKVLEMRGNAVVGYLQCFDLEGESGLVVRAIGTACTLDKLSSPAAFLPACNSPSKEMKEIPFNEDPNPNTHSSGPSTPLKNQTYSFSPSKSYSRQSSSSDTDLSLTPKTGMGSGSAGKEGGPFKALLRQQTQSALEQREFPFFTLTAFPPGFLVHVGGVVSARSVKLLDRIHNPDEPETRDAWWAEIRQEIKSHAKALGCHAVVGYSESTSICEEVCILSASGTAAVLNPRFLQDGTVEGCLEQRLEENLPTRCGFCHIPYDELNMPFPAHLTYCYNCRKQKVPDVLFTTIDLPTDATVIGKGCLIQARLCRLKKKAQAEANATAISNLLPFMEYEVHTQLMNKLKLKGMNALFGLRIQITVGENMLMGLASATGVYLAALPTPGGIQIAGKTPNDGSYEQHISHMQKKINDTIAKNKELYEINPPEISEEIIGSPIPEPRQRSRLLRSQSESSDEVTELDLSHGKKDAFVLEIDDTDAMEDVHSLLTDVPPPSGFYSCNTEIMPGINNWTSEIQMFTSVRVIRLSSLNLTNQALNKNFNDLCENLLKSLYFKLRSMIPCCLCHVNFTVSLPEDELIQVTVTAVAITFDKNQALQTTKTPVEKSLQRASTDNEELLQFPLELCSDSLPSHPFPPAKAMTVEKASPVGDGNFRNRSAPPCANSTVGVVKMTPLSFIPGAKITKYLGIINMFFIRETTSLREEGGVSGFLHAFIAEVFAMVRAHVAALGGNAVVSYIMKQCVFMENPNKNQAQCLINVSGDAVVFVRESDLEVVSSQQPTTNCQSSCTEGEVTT
UniProt Q96NL8: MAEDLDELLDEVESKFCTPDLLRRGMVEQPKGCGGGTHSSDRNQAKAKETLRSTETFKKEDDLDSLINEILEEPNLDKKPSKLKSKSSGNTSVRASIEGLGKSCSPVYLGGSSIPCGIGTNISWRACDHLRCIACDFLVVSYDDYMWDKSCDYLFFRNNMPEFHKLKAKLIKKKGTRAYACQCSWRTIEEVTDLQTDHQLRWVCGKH
UniProt Q13557, whole entry, looked up: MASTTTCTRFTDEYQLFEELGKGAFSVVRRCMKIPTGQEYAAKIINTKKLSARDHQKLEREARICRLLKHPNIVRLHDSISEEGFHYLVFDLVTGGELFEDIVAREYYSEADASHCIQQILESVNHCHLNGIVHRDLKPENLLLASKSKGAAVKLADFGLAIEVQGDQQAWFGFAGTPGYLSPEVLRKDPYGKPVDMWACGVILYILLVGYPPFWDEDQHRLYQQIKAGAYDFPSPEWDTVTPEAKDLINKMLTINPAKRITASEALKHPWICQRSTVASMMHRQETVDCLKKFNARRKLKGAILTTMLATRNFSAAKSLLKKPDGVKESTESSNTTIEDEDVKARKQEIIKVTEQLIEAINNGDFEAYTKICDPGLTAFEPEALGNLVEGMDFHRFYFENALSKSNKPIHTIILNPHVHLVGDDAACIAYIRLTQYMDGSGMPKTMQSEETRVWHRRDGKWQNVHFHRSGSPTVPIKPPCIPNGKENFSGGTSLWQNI
UniProt Q13555: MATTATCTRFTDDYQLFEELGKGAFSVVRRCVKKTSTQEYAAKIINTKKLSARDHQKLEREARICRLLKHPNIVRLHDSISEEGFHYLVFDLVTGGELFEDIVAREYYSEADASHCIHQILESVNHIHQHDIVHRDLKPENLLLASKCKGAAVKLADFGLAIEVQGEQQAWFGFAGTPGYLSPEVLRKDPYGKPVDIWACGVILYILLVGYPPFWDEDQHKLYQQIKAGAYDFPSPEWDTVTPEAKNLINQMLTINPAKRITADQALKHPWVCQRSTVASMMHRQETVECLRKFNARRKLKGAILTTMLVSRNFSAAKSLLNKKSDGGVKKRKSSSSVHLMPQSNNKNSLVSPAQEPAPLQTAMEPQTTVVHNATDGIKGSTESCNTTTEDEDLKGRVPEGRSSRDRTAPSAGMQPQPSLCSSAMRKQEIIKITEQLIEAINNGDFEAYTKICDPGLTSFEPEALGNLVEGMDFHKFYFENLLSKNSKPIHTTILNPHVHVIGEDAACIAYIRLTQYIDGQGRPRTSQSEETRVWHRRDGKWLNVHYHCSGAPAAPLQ
UniProt P25440, whole entry, looked up: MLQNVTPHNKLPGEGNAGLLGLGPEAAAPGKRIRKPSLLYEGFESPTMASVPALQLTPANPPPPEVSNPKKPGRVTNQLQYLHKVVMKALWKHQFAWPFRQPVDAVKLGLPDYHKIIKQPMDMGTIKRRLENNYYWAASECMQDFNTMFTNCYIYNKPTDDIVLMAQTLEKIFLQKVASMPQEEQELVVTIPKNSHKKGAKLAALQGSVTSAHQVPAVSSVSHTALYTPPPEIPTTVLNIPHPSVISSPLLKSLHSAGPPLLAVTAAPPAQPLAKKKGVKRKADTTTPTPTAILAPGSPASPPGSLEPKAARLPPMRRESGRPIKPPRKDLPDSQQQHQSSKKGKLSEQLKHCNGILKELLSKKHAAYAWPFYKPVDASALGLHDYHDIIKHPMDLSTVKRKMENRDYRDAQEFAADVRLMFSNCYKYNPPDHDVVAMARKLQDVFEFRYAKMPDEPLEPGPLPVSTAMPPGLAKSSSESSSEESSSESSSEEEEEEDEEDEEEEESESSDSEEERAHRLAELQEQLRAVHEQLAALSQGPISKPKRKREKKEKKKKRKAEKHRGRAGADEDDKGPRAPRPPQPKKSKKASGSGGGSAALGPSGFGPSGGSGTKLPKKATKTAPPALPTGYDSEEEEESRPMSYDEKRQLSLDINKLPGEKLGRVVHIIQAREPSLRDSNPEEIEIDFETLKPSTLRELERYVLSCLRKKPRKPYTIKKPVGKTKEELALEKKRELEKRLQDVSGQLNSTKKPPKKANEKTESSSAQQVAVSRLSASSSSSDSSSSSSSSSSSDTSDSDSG
UniProt Q6P1X6: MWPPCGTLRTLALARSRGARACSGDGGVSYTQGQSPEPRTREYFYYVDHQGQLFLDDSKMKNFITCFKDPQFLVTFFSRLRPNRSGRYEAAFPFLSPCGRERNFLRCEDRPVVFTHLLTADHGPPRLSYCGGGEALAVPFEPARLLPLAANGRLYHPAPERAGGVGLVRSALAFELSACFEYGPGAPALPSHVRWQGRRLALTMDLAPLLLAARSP
UniProt Q01518, whole entry, looked up: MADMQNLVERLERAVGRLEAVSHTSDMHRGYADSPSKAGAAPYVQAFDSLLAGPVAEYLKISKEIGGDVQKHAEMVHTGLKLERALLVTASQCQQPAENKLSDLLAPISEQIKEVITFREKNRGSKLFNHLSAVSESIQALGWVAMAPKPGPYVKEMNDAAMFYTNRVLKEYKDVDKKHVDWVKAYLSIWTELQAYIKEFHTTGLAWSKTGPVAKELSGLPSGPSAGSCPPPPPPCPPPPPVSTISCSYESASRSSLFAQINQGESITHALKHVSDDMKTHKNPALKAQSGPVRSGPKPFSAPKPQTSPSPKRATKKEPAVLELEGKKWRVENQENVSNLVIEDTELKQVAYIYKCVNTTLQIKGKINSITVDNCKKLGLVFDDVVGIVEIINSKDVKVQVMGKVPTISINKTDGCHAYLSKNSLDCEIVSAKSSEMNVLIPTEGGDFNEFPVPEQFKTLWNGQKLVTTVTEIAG
UniProt P41223: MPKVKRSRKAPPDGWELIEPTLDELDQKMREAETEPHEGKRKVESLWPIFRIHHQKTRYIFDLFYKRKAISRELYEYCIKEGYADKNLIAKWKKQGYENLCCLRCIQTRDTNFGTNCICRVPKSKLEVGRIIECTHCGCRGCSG
UniProt Q8TCD1: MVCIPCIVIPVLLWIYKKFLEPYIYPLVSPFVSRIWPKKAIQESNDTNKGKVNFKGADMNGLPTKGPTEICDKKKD
UniProt Q5T5Y3: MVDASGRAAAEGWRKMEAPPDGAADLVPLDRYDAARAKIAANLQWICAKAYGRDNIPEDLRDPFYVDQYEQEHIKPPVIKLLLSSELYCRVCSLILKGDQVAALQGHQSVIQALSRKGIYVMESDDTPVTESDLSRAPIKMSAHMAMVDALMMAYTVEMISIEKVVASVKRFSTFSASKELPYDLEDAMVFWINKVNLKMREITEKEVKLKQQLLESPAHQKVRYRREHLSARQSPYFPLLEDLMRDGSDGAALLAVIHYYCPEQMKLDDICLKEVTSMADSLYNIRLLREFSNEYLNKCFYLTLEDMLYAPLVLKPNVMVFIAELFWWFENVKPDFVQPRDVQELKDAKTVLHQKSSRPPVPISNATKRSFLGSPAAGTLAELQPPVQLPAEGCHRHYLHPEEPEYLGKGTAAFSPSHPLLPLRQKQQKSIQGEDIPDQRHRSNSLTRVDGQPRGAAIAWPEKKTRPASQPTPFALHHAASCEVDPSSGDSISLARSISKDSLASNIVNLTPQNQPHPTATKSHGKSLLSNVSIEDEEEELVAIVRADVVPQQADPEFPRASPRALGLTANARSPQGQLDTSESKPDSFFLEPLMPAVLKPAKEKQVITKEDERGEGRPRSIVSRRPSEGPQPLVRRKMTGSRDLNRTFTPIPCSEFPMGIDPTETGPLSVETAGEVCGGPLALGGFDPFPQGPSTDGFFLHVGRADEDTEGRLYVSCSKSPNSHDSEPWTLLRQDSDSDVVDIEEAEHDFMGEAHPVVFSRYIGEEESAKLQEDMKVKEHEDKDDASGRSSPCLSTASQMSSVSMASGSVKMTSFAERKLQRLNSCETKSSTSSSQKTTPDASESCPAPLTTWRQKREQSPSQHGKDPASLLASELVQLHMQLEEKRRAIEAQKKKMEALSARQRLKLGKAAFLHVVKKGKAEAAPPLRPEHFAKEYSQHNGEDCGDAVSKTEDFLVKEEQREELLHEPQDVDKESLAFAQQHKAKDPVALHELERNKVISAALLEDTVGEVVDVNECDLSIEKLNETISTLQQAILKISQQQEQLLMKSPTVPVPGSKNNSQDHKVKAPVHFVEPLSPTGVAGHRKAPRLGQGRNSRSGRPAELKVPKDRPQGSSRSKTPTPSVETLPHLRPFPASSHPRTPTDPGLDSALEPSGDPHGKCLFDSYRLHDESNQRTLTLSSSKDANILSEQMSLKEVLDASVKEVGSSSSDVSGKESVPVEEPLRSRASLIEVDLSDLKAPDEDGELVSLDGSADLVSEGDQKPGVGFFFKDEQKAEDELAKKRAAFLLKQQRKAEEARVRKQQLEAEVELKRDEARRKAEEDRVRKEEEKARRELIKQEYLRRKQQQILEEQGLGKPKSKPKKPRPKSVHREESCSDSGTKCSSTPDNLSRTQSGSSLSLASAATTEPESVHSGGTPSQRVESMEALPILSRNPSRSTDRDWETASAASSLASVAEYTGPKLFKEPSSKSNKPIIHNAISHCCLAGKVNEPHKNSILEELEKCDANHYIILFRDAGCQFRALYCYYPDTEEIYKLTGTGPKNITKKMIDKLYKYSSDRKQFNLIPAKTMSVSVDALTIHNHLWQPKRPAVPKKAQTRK

Row | Target | probe-labelled cysteine peptide fold change (10 µM) | probe-labelled cysteine peptide fold change (50 µM)
1 | CALR_P27797_105_GQTLVVQFTVKHEQNIDCGGGYVK (UniProt P27797) | -0.343 | -0.766
2 | BRIX1_Q8TDN6_107_LFVINEVCEMK (UniProt Q8TDN6) | 0.0119 | -0.148
3 | CAND1_Q86VP6_413_QTRPVQSWLCDPDAMEQGETPLTMLQSQVPNIVK (UniProt Q86VP6) | 0.0762 | -0.165
4 | BTK_Q06187_154_YHPCFWIDGQYLCCSQTAK (UniProt Q06187) | -0.033 | -0.0952
5 | BST1_Q10588_271_LLQCVDHSTHPDCALK (UniProt Q10588) | -0.102 | 0.112
6 | C20orf27_Q9GZN8_131_EEILLACEGGTGTCVR (UniProt Q9GZN8) | 0.488 | 0.477
7 | C2CD5_Q86YS7_243_AIGTACTLDK (UniProt Q86YS7) | -0.17 | -0.205
8 | C11orf54_Q9H0W9_187_TGPLNFVTCMR (UniProt Q9H0W9) | 0.136 | -0.211
9 | CAND1_Q86VP6_237_TYIQCIAAISR (UniProt Q86VP6) | 0.27 | 0.119
10 | C8orf37_Q96NL8_33_GCGGGTHSSDR (UniProt Q96NL8) | -0.106 | -0.297
11 | BZW2_Q9Y6E2_97_MTNHCVFSANEDHETIR (UniProt Q9Y6E2) | -0.189 | 0.166
12 | CAD_P27708_1501_EDFASGTAAALAGGITMVCAMPNTRPPIIDAPALALAQK (UniProt P27708) | 0.436 | 0.195
13 | CAMK2D_Q13557_273_HPWICQR (UniProt Q13557) | -0.186 | -0.182
14 | C2CD5_Q86YS7_449_FLQDGTVEGCLEQR (UniProt Q86YS7) | -0.18 | -0.289
15 | C1QBP_Q07021_186_ALVLDCHYPEDEVGQEDEAESDIFSIR (UniProt Q07021) | -0.22 | 0.565
16 | CAND2_O75155_945_CEGAEEGTR (UniProt O75155) | -0.0262 | 0.0461
17 | CAMK2G_Q13555_290_QETVECLR (UniProt Q13555) | -0.0595 | 0.101
18 | C2CD5_Q86YS7_486_CGFCHIPYDELNMPFPAHLTYCYNCR (UniProt Q86YS7) | 0.132 | -0.157
19 | BRD2_P25440_706_YVLSCLR (UniProt P25440) | 0.161 | -0.0522

Random excerpt: two entries already listed.
Row | Target | probe-labelled cysteine peptide fold change (10 µM) | probe-labelled cysteine peptide fold change (50 µM)
5 | BST1_Q10588_271_LLQCVDHSTHPDCALK (UniProt Q10588) | -0.102 | 0.112
19 | BRD2_P25440_706_YVLSCLR (UniProt P25440) | 0.161 | -0.0522

(listing goes on)

Row | Target | probe-labelled cysteine peptide fold change (10 µM) | probe-labelled cysteine peptide fold change (50 µM)
20 | BTN3A3_O00478_512_ILTLEPTALTICPIPK (UniProt O00478) | -0.105 | 0.108
21 | BTBD2_Q9BX70_294_WSEAECQR (UniProt Q9BX70) | -0.108 | -0.101
22 | C8orf82_Q6P1X6_107_CEDRPVVFTHLLTADHGPPR (UniProt Q6P1X6) | -0.0867 | 0.0534
23 | C7orf43_Q8WVR3_305_LPGTSGCFPCPLNALEEHNFLFQLR (UniProt Q8WVR3) | -0.011 | 0.124
24 | CAP1_Q01518_375_GKINSITVDNCK (UniProt Q01518) | -0.0521 | 0.204
25 | C8orf82_Q6P1X6_66_NFITCFK (UniProt Q6P1X6) | -0.179 | 0.549
26 | BTAF1_O14981_109_LNFDRFDICR (UniProt O14981) | -0.271 | -0.536
27 | C1orf112_Q9NSG2_559_EQTVHEVTTVGTAECR (UniProt Q9NSG2) | -0.156 | 0.0382
28 | BUD31_P41223_101_KQGYENLCCLR (UniProt P41223) | -0.0226 | -0.397
29 | BSDC1_Q9NW68_49_DLTEFTQVVQHDTACTIAATASVVK (UniProt Q9NW68) | -0.0355 | -0.788
30 | BSG_P35613_242_SSEHINEGETAMLVCK (UniProt P35613) | -0.298 | -0.091
31 | BRWD1_Q9NSI6_1166_SRDEECDR (UniProt Q9NSI6) | -0.0851 | 0.0754
32 | BRD4_O60885_607_CKPMSYEEK (UniProt O60885) | 0.0999 | -0.173
33 | C18orf32_Q8TCD1_71_GPTEICDK (UniProt Q8TCD1) | 0.351 | 0.469
34 | CAMSAP1_Q5T5Y3_1487_SNKPIIHNAISHCCLAGK (UniProt Q5T5Y3) | -0.243 | -0.526
35 | CABIN1_Q9Y6J0_589_FGPDFPGTHCLGDLLQLSFASSQR (UniProt Q9Y6J0) | -0.0631 | -0.594
36 | BRCC3_P46736_240_ILCQEEQDAYR (UniProt P46736) | -0.203 | 0.187
37 | CAMK1_Q14012_267_RFTCEQALQHPWIAGDTALDK (UniProt Q14012) | -0.112 | -0.104
38 | CAD_P27708_183_ILALDCGLK (UniProt P27708) | 0.0878 | -0.184
